Measured data: PubChem BioAssay AID1224830 (NIAID, 2016)

Purpose: 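Regulators of TLR4 signalling towards TNF-alpha in macrophage-like cells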 (primary screen)
System: human THP-1 monocytic leukaemia cells, TNF dual-luciferase reporter clone, PMA-differentiated to macrophage-like cells
Reagent: siRNA pool against human genes, 50 nM
Timing: LPS for 4 h, given about 3 days after siRNA transfection
Treatment: bacterial LPS (TLR4 ligand), 10 ng/ml
Measured: 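Ratio of firefly to renilla light, scaled to the plate median and expressed as a robust z-score per replicate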
Reading the numbers: TNF reporter robust z-score: higher = stronger TNF reporter response to LPS
Call rule: 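Each well counts as active if its z-score is over 2.8 or under -1.5; controls are left without a call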
In all, the deposit lists about 18,000 reagents; below is a random part of them. Over the whole deposit, about 2,900 (16%) were called active. 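Calls are made per well; low scores hint the gene aids the LPS response, high scores that it dampens it.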 A number with no mark means an inactive call. Repeated entries: four replicate wells of each siRNA pool.

| gene | TNF reporter robust z-score |
| --- | --- |
| LDHC | 0.44 |
| LDHC | 0.71 |
| LDHC | 0.61 |
| LDHC | 1.26 |
| ZNF184 | 2.67 |
| ZNF184 | 2.13 |
| ZNF184 | 1.56 |
| ZNF184 | 1.86 |
| DVL2 | -0.04 |
| DVL2 | 0.69 |
| DVL2 | 0.25 |
| DVL2 | 0.4 |
| POU2F3 | -0.08 |
| POU2F3 | -0.1 |
| POU2F3 | 0.54 |
| POU2F3 | 0.43 |
| GFRAL | 0.18 |
| GFRAL | 1.66 |
| GFRAL | 1.63 |
| GFRAL | 1.36 |
| TCF7L2 | -0.34 |
| TCF7L2 | 0.65 |
| TCF7L2 | -0.77 |
| TCF7L2 | -0.31 |
| LINC00477 | 4.74 (active) |
| LINC00477 | 4.08 (active) |
| LINC00477 | 0.77 |
| LINC00477 | 0.83 |
| SBNO2 | -0.06 |
| SBNO2 | -0.3 |
| SBNO2 | 0.45 |
| SBNO2 | -0.28 |
| AP1S3 | 0.84 |
| AP1S3 | 1 |
| AP1S3 | 0.37 |
| AP1S3 | 1.02 |
| RAD50 | -0.32 |
| RAD50 | 0.81 |
| RAD50 | -0.63 |
| RAD50 | -0.27 |
| SESTD1 | -0.54 |
| SESTD1 | -0.99 |
| SESTD1 | -0.6 |
| SESTD1 | -0.55 |
| KLHL6 | -0.95 |
| KLHL6 | 0.03 |
| KLHL6 | 0.08 |
| KLHL6 | 0.45 |

6 entries already listed, sorted by “TNF reporter robust z-score”, ascending:
| gene | TNF reporter robust z-score |
| --- | --- |
| LDHC | 0.61 |
| LDHC | 1.26 |
| ZNF184 | 1.56 |
| ZNF184 | 1.86 |
| ZNF184 | 2.13 |
| ZNF184 | 2.67 |
